Measured values as given in patent US12458641B2, “NK-3 receptor antagonists for therapeutic or cosmetic treatment of excess body fat” (Ogeda SA, priority 2015, dated 2025).

Assay: 13-week oral dosing in cynomolgus monkeys: whole-body DEXA scan (lean mass, bone mineral density, bone mineral content, fat mass)
Assay type: in vivo, cynomolgus monkeys (Macaca fascicularis)
Conditions: female monkeys, 10 and 50 mg/kg oral once daily, pre-dose vs week 13
Experimental: Sexually-mature (age range of ˜4 years at pre-dose), purpose-bred cynomolgus monkeys (Macaca fascicularis) of Asian origin were used. Sexual maturity was proven by recording of at least two menstrual bleedings (with 20-to-50 days between menstruations) prior to entry into the study.
NHPs were divided into three treatment groups: vehicle control (N=6) and compound k-5 Dose Groups of 10 mg/kg (N=4) and 50 mg/kg (N=6), respectively. All NHPs were dosed once daily (morning) by oral gavage over the 13 week treatment period of the study. The dose vehicle was 0.5% methylcellulose (Methocel® from Colorcon) in water.
All NHPs were subjected to a body weight measurement and DEXA scan (Dual-energy X-ray absorptiometry, Hologic Dexa QDR® 4000) in the pre-dose phase and in the final week (week-13) of the dosing phase. The measurements were made under ketamine anesthesia with dorbene and antisedan.
The whole body was scanned by DEXA for measurement of lean mass, bone mineral density, bone mineral content and fat mass.

Cc1nsc(-c2nnc3n2CCN(C(=O)c2ccc(F)cc2)[C@@H]3C)n1 [k-5, (R)-(4-fluorophenyl)(8-methyl-3-(3-methyl-1,2,4-thiadiazol-5-yl)-5,6-dihydro-[1,2,4]triazolo[4,3-a]pyrazin-7(8H)-yl)methanone]
no significant changes: change in bone mineral content (DEXA) | change in bone mineral density (DEXA) | change in lean mass (DEXA)
